From paper PMC12707310
No constants are given. Whether binding was seen depends on the method and setting. Binding seen in cells or lysates may run through a third protein. Some results given as binding are weak or reduced against the parent protein; the word gives no strength.

Sequences of proteins named here, by UniProt entry; tags and fusion partners are left off.
UniProt P51149: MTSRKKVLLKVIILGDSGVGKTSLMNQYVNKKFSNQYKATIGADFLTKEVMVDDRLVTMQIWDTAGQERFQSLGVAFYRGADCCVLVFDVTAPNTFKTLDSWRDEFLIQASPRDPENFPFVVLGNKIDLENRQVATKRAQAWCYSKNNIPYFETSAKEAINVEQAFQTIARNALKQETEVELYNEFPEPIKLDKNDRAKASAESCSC

How the values were obtained:
mCherry-RAB7 WT [1] = biological target: mCherry-RAB7 WT (UniProt P51149); assay: co-IP; WT mCherry-RAB7 expressed in control and SPG21 KO HeLa cells, cells pretreated with the cross-linker DSP (500 µM, 30 min, RT), lysed in 150 mM NaCl, 30 mM Tris-HCl pH 7.5, 0.5% NP40, 1 mM MgCl2; RFP-trap beads 1 h 30 at 4°C; endogenous CCZ1 or TBC1D5 detected by western blotting
[2] = biological target: T1, maspardin (SPG21), endogenously expressed in HeLa cells (human (endogenous in HeLa)) (UniProt Q9NZD8); assay: co-IP; co-immunoprecipitation of maspardin with VPS35 or TBC1D5, under conditions showing maspardin's binding with RAB7; no figure; bait not told
T1 sequence: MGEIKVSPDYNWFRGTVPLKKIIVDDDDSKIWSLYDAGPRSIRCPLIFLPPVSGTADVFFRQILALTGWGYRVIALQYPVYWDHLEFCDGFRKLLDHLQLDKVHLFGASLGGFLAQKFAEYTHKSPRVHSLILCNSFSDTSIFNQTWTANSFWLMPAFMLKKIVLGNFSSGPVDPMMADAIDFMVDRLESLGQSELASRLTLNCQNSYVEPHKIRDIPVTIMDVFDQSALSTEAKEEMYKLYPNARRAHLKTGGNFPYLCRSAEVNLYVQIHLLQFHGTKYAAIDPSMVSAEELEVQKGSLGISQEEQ

[3] = biological target: T1, maspardin (SPG21), endogenously expressed in HeLa cells (human (endogenous in HeLa)); assay: co-IP; endogenous maspardin precipitated from HeLa lysate with an anti-maspardin antibody and protein A magnetic beads; lysis in 120 mM NaCl, 50 mM Tris-HCl pH 7.4, 0.05% NP40, 5 mM EDTA, 4°C; washes PBS Tween 0.05%; RAB7 detected by western blotting; SPG21 KO cells, beads alone and non-targeting IgG as controls
mCherry-RAB7 WT [4] = biological target: mCherry-RAB7 WT (UniProt P51149); assay: co-IP; mCherry-RAB7 (WT, CA, DN) expressed in control HeLa cells, cells pretreated with the cross-linker DSP (500 µM, 30 min, RT), lysed in 150 mM NaCl, 30 mM Tris-HCl pH 7.5, 0.5% NP40, 1 mM MgCl2; RFP-trap beads 1 h 30 at 4°C; wash buffer with 500 mM NaCl; endogenous maspardin detected by western blotting

With “TBC1D5, endogenously expressed in HeLa cells (from UniProt Q92609-1 1-795)” the binding (mCherry-RAB7 WT [1]) was “binds” and the binding [2] was “no binding”.

With “RAB7 (Ras-related protein RAB7), endogenously expressed in HeLa cells (from UniProt P51149 1-207)” the binding [3] was “binds”.

B1: maspardin (SPG21), endogenously expressed in HeLa cells (protein, UniProt Q9NZD8-1 1-308)
chain: MGEIKVSPDYNWFRGTVPLKKIIVDDDDSKIWSLYDAGPRSIRCPLIFLPPVSGTADVFFRQILALTGWGYRVIALQYPVYWDHLEFCDGFRKLLDHLQLDKVHLFGASLGGFLAQKFAEYTHKSPRVHSLILCNSFSDTSIFNQTWTANSFWLMPAFMLKKIVLGNFSSGPVDPMMADAIDFMVDRLESLGQSELASRLTLNCQNSYVEPHKIRDIPVTIMDVFDQSALSTEAKEEMYKLYPNARRAHLKTGGNFPYLCRSAEVNLYVQIHLLQFHGTKYAAIDPSMVSAEELEVQKGSLGISQEEQ
B1 was tested, and the binding (mCherry-RAB7 WT [4]) was “binds”.
